# In the supplement of paper PMC8728848:
# The other results are listed elsewhere or left out.
# Assays:
# Assay in all cases: glycan array binding signal (z-score within array); higher = stronger binding
# Conditions in all cases: glycan notation: IUPAC condensed, linker removed
# [1] = target: Gal(a1-3)Gal(b1-3)GlcNAc
# Procedure, shortened: (§1)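 Glycan array binding is given as a within-array Z-score, which can be read as non-binding when negative. The arrays, 3228 of them, came from the Consortium for Functional Glycomics database and were retained only where the protein sequence was available. Z-scores were averaged across arrays of the same protein sequence at different concentrations or buffers and across linkers.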
# [2] = target: Gal(a1-3)Gal(b1-3)GlcNAc(b1-2)Man(a1-3)[Gal(a1-3)Gal(b1-3)GlcNAc(b1-2)Man(a1-6)]Man(b1-4)GlcNAc(b1-4)GlcNAc
# Procedure, shortened: as §1
# [3] = target: Gal(a1-3)Gal(b1-3)[Fuc(a1-4)]GlcNAc(b1-2)Man(a1-3)[Gal(a1-3)Gal(b1-3)[Fuc(a1-4)]GlcNAc(b1-2)Man(a1-6)]Man(b1-4)GlcNAc(b1-4)GlcNAc
# Procedure, shortened: as §1
# [4] = target: Gal(a1-3)Gal(b1-4)Glc
# Procedure, shortened: as §1
# [5] = target: Gal(a1-3)Gal(b1-4)GlcNAc
# Procedure, shortened: as §1
# [6] = target: Gal(a1-3)Gal(b1-4)GlcNAc(b1-3)GalNAc
# Procedure, shortened: as §1
# [7] = target: Gal(a1-3)Gal(b1-4)[Fuc(a1-3)]GlcNAc
# Procedure, shortened: as §1
# [8] = target: Gal(a1-3)Gal(b1-4)[Fuc(a1-3)]GlcNAc(b1-2)Man(a1-3)[Gal(a1-3)Gal(b1-4)[Fuc(a1-3)]GlcNAc(b1-2)Man(a1-6)]Man(b1-4)GlcNAc(b1-4)GlcNAc
# Procedure, shortened: as §1
# [9] = target: Gal(a1-3)GalNAc
# Procedure, shortened: as §1
# [10] = target: Gal(a1-3)[Gal(a1-4)]Gal(b1-4)GlcNAc
# Procedure, shortened: as §1
# [11] = target: Gal(a1-4)Gal(b1-3)GlcNAc(b1-2)Man(a1-3)[Gal(a1-4)Gal(b1-3)GlcNAc(b1-2)Man(a1-6)]Man(b1-4)GlcNAc(b1-4)GlcNAc
# Procedure, shortened: as §1
# [12] = target: Gal(a1-4)Gal(b1-4)Glc
# Procedure, shortened: as §1
# [13] = target: Gal(a1-4)Gal(b1-4)GlcNAc
# Procedure, shortened: as §1
# [14] = target: Gal(a1-4)Gal(b1-4)GlcNAc(b1-2)Man(a1-3)[Gal(a1-4)Gal(b1-4)GlcNAc(b1-2)Man(a1-6)]Man(b1-4)GlcNAc(b1-4)GlcNAc
# Procedure, shortened: as §1
# [15] = target: Gal(a1-4)Gal(b1-4)GlcNAc(b1-3)Gal(b1-4)Glc
# Procedure, shortened: as §1
# [16] = target: Gal(a1-4)GlcNAc
# Procedure, shortened: as §1
# [17] = target: Gal(a1-6)Glc
# Procedure, shortened: as §1
# [18] = target: Gal(b1-2)Gal
# Procedure, shortened: as §1
# [19] = target: Gal(b1-3)Gal
# Procedure, shortened: as §1
# [20] = target: Gal(b1-3)Gal(b1-4)GlcNAc
# Procedure, shortened: as §1
# [21] = target: Gal(b1-3)Gal(b1-4)GlcNAc(b1-2)Man(a1-3)[Gal(b1-3)Gal(b1-4)GlcNAc(b1-2)Man(a1-6)]Man(b1-4)GlcNAc(b1-4)GlcNAc
# Procedure, shortened: as §1
# [22] = target: Gal(b1-3)GalNAc
# Procedure, shortened: as §1
# [23] = target: Gal(b1-3)GalNAc(a1-3)[Fuc(a1-2)]Gal(b1-4)Glc
# Procedure, shortened: as §1
# [24] = target: Gal(b1-3)GalNAc(a1-3)[Fuc(a1-2)]Gal(b1-4)GlcNAc
# Procedure, shortened: as §1
# [25] = target: Gal(b1-3)GalNAc(b1-3)Gal(a1-4)Gal(b1-4)Glc
# Procedure, shortened: as §1
# [26] = target: Gal(b1-3)GalNAc(b1-4)Gal(b1-4)Glc
# Procedure, shortened: as §1
# [27] = target: Gal(b1-3)GalNAc(b1-4)[Neu5Ac(a2-3)]Gal(b1-4)Glc
# Procedure, shortened: as §1
# [28] = target: Gal(b1-3)GlcNAc
# Procedure, shortened: as §1
# [29] = target: Gal(b1-3)GlcNAc(a1-6)Gal(b1-4)GlcNAc
# Procedure, shortened: as §1
# [30] = target: Gal(b1-3)GlcNAc(b1-2)Man(a1-3)[Gal(b1-3)GlcNAc(b1-2)Man(a1-6)]Man(b1-4)GlcNAc(b1-4)GlcNAc
# Procedure, shortened: as §1
# [31] = target: Gal(b1-3)GlcNAc(b1-2)Man(a1-3)[Gal(b1-3)GlcNAc(b1-2)Man(a1-6)]Man(b1-4)GlcNAc(b1-4)[Fuc(a1-6)]GlcNAc
# Procedure, shortened: as §1
# [32] = target: Gal(b1-3)GlcNAc(b1-3)Gal(b1-3)GlcNAc
# Procedure, shortened: as §1
# [33] = target: Gal(b1-3)GlcNAc(b1-3)Gal(b1-4)Glc
# Procedure, shortened: as §1
# [34] = target: Gal(b1-3)GlcNAc(b1-3)Gal(b1-4)GlcNAc
# Procedure, shortened: as §1
# [35] = target: Gal(b1-3)GlcNAc(b1-3)Gal(b1-4)GlcNAc(b1-6)[Gal(b1-3)GlcNAc(b1-3)]Gal(b1-4)Glc
# Procedure, shortened: as §1
# [36] = target: Gal(b1-3)GlcNAc(b1-3)Gal(b1-4)[Fuc(a1-3)]GlcNAc(b1-6)[Gal(b1-3)GlcNAc(b1-3)]Gal(b1-4)Glc
# Procedure, shortened: as §1
# [37] = target: Gal(b1-3)GlcNAc(b1-3)GalNAc
# Procedure, shortened: as §1
# [38] = target: Gal(b1-3)GlcNAc(b1-6)Gal(b1-4)GlcNAc
# Procedure, shortened: as §1
binder,measurement,setting,value
"PEB1 (Campylobacter jejuni), Q0P9X8 (protein) MVFRKSLLKLAVFALGACVAFSNANAAEGKLESIKSKGQLIVGVKNDVPHYALLDQATGEIKGFEVDVAKLLAKSILGDDKKIKLVAVNAKTRGPLLDNGSVDAVIATFTITPERKRIYNFSEPYYQDAIGLLVLKEKKYKSLADMKGANIGVAQAATTKKAIGEAAKKIGIDVKFSEFPDYPSIKAALDAKRVDAFSVDKSILLGYVDDKSEILPDSFEPQSYGIVTKKDDPAFAKYVDDFVKEHKNEIDALAKKWGL",glycan array binding signal (z-score),[1],-0.812
same,glycan array binding signal (z-score),[2],2.15
same,glycan array binding signal (z-score),[3],3.87
same,glycan array binding signal (z-score),[4],-0.309
same,glycan array binding signal (z-score),[5],-0.763
same,glycan array binding signal (z-score),[6],-0.427
same,glycan array binding signal (z-score),[7],0.359
same,glycan array binding signal (z-score),[8],0.215
same,glycan array binding signal (z-score),[9],-0.041
same,glycan array binding signal (z-score),[10],-0.307
same,glycan array binding signal (z-score),[11],-0.8
same,glycan array binding signal (z-score),[12],-0.339
same,glycan array binding signal (z-score),[13],0.544
same,glycan array binding signal (z-score),[14],3.37
same,glycan array binding signal (z-score),[15],-0.039
same,glycan array binding signal (z-score),[16],1.09
same,glycan array binding signal (z-score),[17],0.364
same,glycan array binding signal (z-score),[18],0.469
same,glycan array binding signal (z-score),[19],-0.141
same,glycan array binding signal (z-score),[20],-0.294
same,glycan array binding signal (z-score),[21],0.339
same,glycan array binding signal (z-score),[22],-0.474
same,glycan array binding signal (z-score),[23],0.105
same,glycan array binding signal (z-score),[24],-1.06
same,glycan array binding signal (z-score),[25],0.027
same,glycan array binding signal (z-score),[26],1.58
same,glycan array binding signal (z-score),[27],0.795
same,glycan array binding signal (z-score),[28],-0.055
same,glycan array binding signal (z-score),[29],-0.33
same,glycan array binding signal (z-score),[30],-0.715
same,glycan array binding signal (z-score),[31],-0.287
same,glycan array binding signal (z-score),[32],-0.245
same,glycan array binding signal (z-score),[33],0.682
same,glycan array binding signal (z-score),[34],0.523
same,glycan array binding signal (z-score),[35],0.831
same,glycan array binding signal (z-score),[36],-0.346
same,glycan array binding signal (z-score),[37],-0.491
same,glycan array binding signal (z-score),[38],-0.047
